Reference: publication PMC11858854, “In Vitro and In Vivo Assessment of Pharmacokinetic Profile of Peramivir in the Context of Inhalation Therapy” (Pharmaceuticals, 2025)

Chains of the proteins cited; added tags and fusions are not shown.
UniProt P08183, whole entry: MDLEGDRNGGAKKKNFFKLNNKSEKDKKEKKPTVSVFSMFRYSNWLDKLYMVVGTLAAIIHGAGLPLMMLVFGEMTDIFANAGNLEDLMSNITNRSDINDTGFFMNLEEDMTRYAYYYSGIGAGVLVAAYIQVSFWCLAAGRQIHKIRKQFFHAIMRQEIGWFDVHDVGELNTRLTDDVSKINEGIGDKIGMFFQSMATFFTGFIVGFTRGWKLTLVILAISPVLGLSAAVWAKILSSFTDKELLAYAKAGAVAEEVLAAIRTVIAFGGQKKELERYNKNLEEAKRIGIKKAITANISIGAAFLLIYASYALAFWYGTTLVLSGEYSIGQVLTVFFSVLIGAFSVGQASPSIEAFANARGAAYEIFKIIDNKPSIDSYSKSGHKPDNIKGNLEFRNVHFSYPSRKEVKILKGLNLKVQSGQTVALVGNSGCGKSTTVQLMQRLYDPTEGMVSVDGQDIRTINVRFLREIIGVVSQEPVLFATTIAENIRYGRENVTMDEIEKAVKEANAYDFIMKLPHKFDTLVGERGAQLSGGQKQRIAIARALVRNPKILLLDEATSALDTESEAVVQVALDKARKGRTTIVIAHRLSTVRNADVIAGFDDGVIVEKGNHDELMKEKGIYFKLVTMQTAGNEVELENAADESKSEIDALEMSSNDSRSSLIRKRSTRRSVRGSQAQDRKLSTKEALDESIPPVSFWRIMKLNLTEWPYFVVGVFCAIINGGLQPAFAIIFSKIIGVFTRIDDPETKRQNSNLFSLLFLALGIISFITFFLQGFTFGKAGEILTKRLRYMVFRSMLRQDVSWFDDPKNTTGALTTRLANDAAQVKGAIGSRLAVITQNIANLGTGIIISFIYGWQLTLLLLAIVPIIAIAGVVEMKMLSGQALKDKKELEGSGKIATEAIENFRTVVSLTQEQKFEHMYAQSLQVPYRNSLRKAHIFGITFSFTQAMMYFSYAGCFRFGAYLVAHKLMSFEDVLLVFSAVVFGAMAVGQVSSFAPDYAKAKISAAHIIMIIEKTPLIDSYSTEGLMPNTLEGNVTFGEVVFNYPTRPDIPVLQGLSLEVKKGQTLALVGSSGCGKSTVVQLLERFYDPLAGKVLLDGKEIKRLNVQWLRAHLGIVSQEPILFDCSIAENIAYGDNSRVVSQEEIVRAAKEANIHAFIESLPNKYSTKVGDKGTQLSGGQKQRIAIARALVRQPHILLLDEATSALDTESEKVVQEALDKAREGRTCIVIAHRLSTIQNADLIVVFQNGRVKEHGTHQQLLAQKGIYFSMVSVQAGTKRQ

Columns and labels:
P-gp (MDR1) = P-gp (MDR1) (Homo sapiens, UniProt P08183); test: Permeability assay, LLC-PK1-MDR1 cells overexpressing P-gp; conditions: human, LLC-PK1
human MDR1 (P-gp) = human MDR1 (P-gp) (Homo sapiens, UniProt P08183); test: as above; conditions: LLC-PK1-MDR1, 2 μM, Mean ± SD, n = 3
[1] = Permeability assay, LLC-PK1-MOCK cells; format: in vitro ADME; conditions: pig; LLC-PK1, 2 μM, Mean ± SD, n = 3
From the text: (§1) The experimental methodology was as previously described.

LLC-PK1 cells = test: Permeability assay, LLC-PK1-MOCK cells; format: in vitro ADME; conditions: LLC-PK1, 2 μM, Mean ± SD, n = 3
From the text: as §1

[2] = Bidirectional transport, NCI-H441 air-liquid culture model; format: in vitro ADME; conditions: human, NCI-H441, 2 μM
Method: NCI-H441 cells were cultured in RPMI-1640 medium (Gibco, Thermo, CA, USA) supplemented with 10% FBS and PS (100 U/mL) at 37 °C in a humidified 5% CO2 incubator, and the medium was changed every other day. […] Then, 850 μL of complete medium (containing 200 nM dexamethasone) was added to the basolateral chamber. After approximately 4 days, the TEER value was measured to be about 200 Ω × cm^2, and the medium in the apical surface of the Transwell® was removed. Subsequently, an air-interfaced culture (AIC) was initiated by supplying 650 μL of culture medium to the basolateral chamber only. The culture medium was replaced every other day.
The functional expression of this cell model was confirmed by detecting the mRNA expression of related membrane proteins and probe substrate inhibition experiments. The effective construction of the cellular barrier was acknowledged, and subsequently, the transfer experiment commenced.
We removed the liquid from the apical and basolateral of the Transwell, rinsed the cells three times with a buffer containing HBSS, 10 mM Hepes, and 0.1% BSA (Buffer A), and then added Buffer A (100 µL for the apical side and 600 µL for the basolateral side) for pre-incubation for 30 min at 37 °C. For the transport studies in the apical to basolateral (A-B) direction, 100 μL of pre-warmed test solution (Buffer A containing 2 µM positive control drugs or peramivir) was added to the apical side, while 600 μL of pre-warmed assay buffer, a buffer containing HBSS, 10 mM Hepes, and 1% BSA (Buffer B), was added to the basolateral compartment.
In the bidirectional transport study, the following equations were used to calculate Papp values and ER values:Papp = 1/(A × C0) × (dx/dt)(3) ER = (Papp,BA/Papp,AB) × 100%(4) where A is the surface area of the Transwell insert, C0 is the initial concentration of a compound applied to the donor chamber, t is incubation time, x is the amount of a compound in the receiver chamber, and dx/dt is the flux of the compound across the cell monolayer.

[3] = Bidirectional transport, Calu-3 air-liquid culture model; conditions: human
[4] = Bidirectional transport, NCI-H441/dTHP co-culture model; format: in vitro ADME; conditions: human, Mean ± SD, n = 3
Method: THP-1 cells were cultured in RPMI-1640 medium (Gibco, Thermo, CA, USA) supplemented with 10% FBS, PS (100 U/mL), and β-Mer (0.05 mM) at 37 °C in a humidified 5% CO2 incubator, and the medium was changed every other day. THP-1 cells were seeded at 4 × 10^5 cells/mL in six-well plates and induced for 48 h by adding medium containing a final concentration of 100 ng/mL PMA. The successful differentiation into M0 macrophages was verified by morphological observation and mRNA detection.
Then, the differentiated cells were seeded at 5 × 10^4 cells/well on the surface of NCI-H441 cells 10 days after air–liquid culture and continued to co-culture for 24 h. […] The effective construction of the cellular barrier was acknowledged, and subsequently, the transfer experiment commenced.
We removed the liquid from the apical and basolateral of the Transwell, rinsed the cells three times with a buffer containing HBSS, 10 mM Hepes, and 0.1% BSA (Buffer A), and then added Buffer A (100 µL for the apical side and 600 µL for the basolateral side) for pre-incubation for 30 min at 37 °C. […]

SMILES: CC(C)NCC(O)COc1ccc(CC(N)=O)cc1 (stereo not shown) [Atenolol]
- Papp B→A at 2 h, 2 µM (P-gp (MDR1)): 1.55 ± 0.19 ×10⁻⁶ cm/s
- efflux ratio at 2 h, 2 μM (P-gp (MDR1)): 1.27
- Papp A-B (human MDR1 (P-gp)): 1.22 ± 0.11 ×10−6 cm/s
- Papp B→A at 2 h, 2 µM [1]: 0.18 ± 0.02 ×10⁻⁶ cm/s
- Papp A-B (LLC-PK1 cells): BLQ
- Papp A→B at 2 h, 2 µM ([2]; Mean ± SD, n = 3): 1.71 ± 0.14 ×10⁻⁶ cm/s
- Papp B→A at 2 h, 2 µM ([2]; Mean ± SD, n = 3): 1.71 ± 0.12 ×10⁻⁶ cm/s
- efflux ratio at 2 h, 2 μM ([2]; read-out: ER): 1
- Papp A→B at 2 h, 2 µM [3]: 0.3 ± 0.05 ×10⁻⁶ cm/s
- Papp B→A at 2 h, 2 µM [3]: 0.16 ± 0.04 ×10⁻⁶ cm/s
- efflux ratio at 2 h, 2 μM [3]: 0.3 ± 0.05
- Papp A→B at 2 h, 2 µM [4]: 1.56 ± 0.17 ×10⁻⁶ cm/s
- Papp B→A at 2 h, 2 µM [4]: 1.38 ± 0.24 ×10⁻⁶ cm/s
